According to PubChem BioAssay AID445 (National Center for Advancing Translational Sciences (NCATS), 2006):
The list shows a part of the results. These are further read-outs of the screen, such as a control signal, another cell line or another target. No call is given for them. Most of these compounds were active or inconclusive in the main read-out, so they are no random draw. The note in brackets gives the kind of curve behind each potency; many fits are weak.

Test: IkB Signaling
Details: ABC-DLBCL IkBa-CBG/CBR dual luciferase ratio (green luciferase fused to IkBa over red control in OCI-Ly3 lymphoma cells), 4 h
How it was run: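 Luminescence ratio of IκBα-fused green versus native red beetle luciferase in OCI-Ly3 cells, 4 h post-doxycycline with compound; red signal alone, scaled from basal (0%) to zero light (-100%), flagged nonspecific or cytotoxic effects.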

[1] = measured here: control luc red channel unless noted

With `CC(=O)N1CCc2c(sc3c2c(=O)n(-c2ccccc2)c(=O)n3CC(=O)c2ccccc2)C1` the AC50 [1] was 5.01 µM [rising, single point].

In the case of `Clc1ccccc1CNCC1CCC(CNCc2ccccc2Cl)CC1` (stereo unspecified), the AC50 [1] was 39.8 µM [falling, single point].

In the case of `CC(=O)Nc1ccc(NC(=O)c2ccc3c(c2)N(Cc2cccc(Cl)c2)C(=O)c2ccccc2S3=O)cc1` (stereo unspecified), the AC50 [1] was 6.31 µM [falling, partial curve].

With `COCc1nc2ccccc2n1Cc1ccc(C(C)(C)C)cc1` the AC50 [1] was 31.6 µM [falling, single point].

For `CCCCN(C)CC(O)Cn1cc(/C=C/C(=O)c2ccc(Br)cc2)c2ccccc21` (stereo unspecified), the AC50 [1] was 12.6 µM [falling, partial curve].

In the case of `CC(=O)c1cccc(NC(=O)c2sc(-n3nc(C)c(Cc4ccccc4)c3C)nc2C)c1`, the AC50 [1] was 0.1 µM [falling, full curve, poor fit].

For `Cc1cc(=O)[nH]c2nnc(SCc3ccc(Cl)cc3Cl)n12`, the AC50 [1] was 3.16 µM [rising, partial curve, poor fit].

In the case of `Cc1ccc2c(CNC3CCCCC3)c(C(=O)O)n(Cc3ccc(F)cc3)c2c1`, the AC50 [1] was 20 µM [falling, single point].

For `COCCNC(=O)c1ccc2c(c1)N(Cc1cc(C)ccc1C)C(=O)c1ccccc1S2=O` (stereo unspecified), the AC50 [1] was 31.6 µM [falling, partial curve, poor fit].

In the case of `Cc1ccc2nc(COc3cccc(NC(=O)Nc4ccc(C)c(Cl)c4)c3)cc(=O)n2c1`, the AC50 [1] was 2.51 µM [falling, full curve].

With `COc1cccc(-c2cc(C(=O)NCCc3ccc(OC)c(OC)c3)no2)c1` the AC50 [1] was 1.58 µM [rising, full curve, poor fit].

In the case of `O=C(Nc1ccc(F)c(Cl)c1)c1ccc2c(Cl)c3c(nc2c1)CCCC3`, the AC50 [1] was 0.0501 µM [falling, full curve].

In the case of `O=C(N1CCN(Cc2ccc3c(c2)OCO3)CC1)C12CC3CC(CC(C3)C1)C2`, the AC50 [1] was 25.1 µM [falling, partial curve].

For `Cc1cc(C)cc(-n2c(SCC(=O)Nc3ccccc3)nc3c(oc4ccccc43)c2=O)c1`, the AC50 [1] was 12.6 µM [falling, partial curve].

With `COc1ccc(-c2noc(CSc3ccccc3)n2)cc1OC` the AC50 [1] was 39.8 µM [falling, single point].

For `Cc1ccc(-n2nc3c(=O)n(C(C)C(=O)NCc4ccc(OC(C)C)cc4)nc(C)c3c2C)cc1` (stereo unspecified), the AC50 [1] was 12.6 µM [falling, partial curve].

With `COc1ccc2c(CNCc3cccs3)c(C(=O)O)n(Cc3ccc(F)cc3)c2c1` the AC50 [1] was 10 µM [falling, partial curve].

In the case of `CC(C)Cn1cc(NC(=O)N2CCN(c3ccc(F)cc3)CC2)c2ccccc2c1=O`, the AC50 [1] was 39.8 µM [falling, single point].

With `CC(=O)c1ccc(NC(=O)CSC2=Nc3ccccc3N=C(c3ccc(F)cc3)C2)cc1` the AC50 [1] was 25.1 µM [falling, single point].

For `COc1cc(OC)cc(-c2nc3nc(C)c(CCC(=O)Nc4cc(C)cc(C)c4)c(C)n3n2)c1`, the AC50 [1] was 12.6 µM [falling, partial curve].

For `O=C(c1ccc2c(Cl)c3c(nc2c1)CCCC3)N1CCN(c2ccc(Cl)cc2)CC1`, the AC50 [1] was 25.1 µM [falling, single point].

With `O=C(Nc1nc2c(F)cc(F)cc2s1)c1ccc(S(=O)(=O)N2CCc3ccccc32)cc1` the AC50 [1] was 0.794 µM [falling, full curve].

In the case of `CCN1C(C(=O)c2ccccc2)=C(OC(=O)COc2ccc(C)cc2)c2ccccc2S1(=O)=O`, the AC50 [1] was 12.6 µM [falling, partial curve].

For `COC(=O)c1ccc(N2C(=O)Cc3cc(OC)c(OC)cc3C2c2ccc(F)cc2)cc1` (stereo unspecified), the AC50 [1] was 20 µM [falling, partial curve].

With `COc1ccc(CCCc2nnc(SCC(=O)Nc3cccc(F)c3C)o2)cc1` the AC50 [1] was 20 µM [falling, partial curve].

With `CCOCCc1nn2c(=O)cc(COC(=O)c3ccccc3OC)nc2s1` the AC50 [1] was 15.8 µM [falling, partial curve].

For `CCCC(=O)Nc1cccc(OCc2cc(=O)n3cccc(C)c3n2)c1`, the AC50 [1] was 20 µM [falling, partial curve].

For `CCn1c(C)c(C)c2cc(C(=O)NCC(C)c3ccccc3)ccc21` (stereo unspecified), the AC50 [1] was 39.8 µM [falling, single point].

For `COc1ccc(N(CC(=O)Nc2cccc(Cl)c2)S(=O)(=O)c2c(C)[nH]c(=O)[nH]c2=O)cc1`, the AC50 [1] was 25.1 µM [falling, single point].

With `Cc1cccc(OCc2nc(CC(=O)Nc3ccc(Cl)cc3)cs2)c1` the AC50 [1] was 6.31 µM [falling, single point].

In the case of `Cc1cccc(C)c1-n1ncc(C(=O)NCCCN2CCC(C)CC2)c1C1CCN(C(=O)OC(C)(C)C)CC1`, the AC50 [1] was 20 µM [falling, partial curve].

In the case of `Cc1cc(Nc2ccc(Br)cc2)nc(C)n1`, the AC50 [1] was 3.16 µM [rising, partial curve].

In the case of `CCOC(=O)c1cnc2c(ccc3ccccc32)c1Nc1ccc(C(C)=O)cc1`, the AC50 [1] was 10 µM [falling, partial curve].

For `O=C(Nc1ccc(N2CCCC2)c(Cl)c1)c1ccc(Br)o1`, the AC50 [1] was 12.6 µM [falling, partial curve].

In the case of `COc1cccc(CSc2nc3ccncc3n2CC(=O)Nc2ccc(OC)c(OC)c2OC)c1`, the AC50 [1] was 25.1 µM [falling, single point].

In the case of `O=S(=O)(c1ccc(Cl)cc1)c1nc(-c2cccs2)oc1N1CCCCC1`, the AC50 [1] was 39.8 µM [falling, partial curve].

In the case of `Cc1cc(C)nc(-n2nc(C)c3c2N(Cc2ccccc2F)C(=O)CC3c2ccc(Cl)cc2)n1` (stereo unspecified), the AC50 [1] was 15.8 µM [falling, partial curve].

For `CCOC(=O)c1sc2ccccc2c1S(=O)(=O)NCc1ccccc1OC`, the AC50 [1] was 31.6 µM [falling, single point].

For `Cn1ncc2c(N3CCN(c4ccc(F)cc4)CC3)ncnc21`, the AC50 [1] was 39.8 µM [falling, single point].

In the case of `COc1cc(-c2nc3sccn3c2Nc2c(C)cccc2C)ccc1O`, the AC50 (measured here: IkB-luc green channel) was 31.6 µM [rising, partial curve] and the AC50 (measured here: control luc red channel) was 25.1 µM [rising, single point].
